Data taken from US6096874A (Board of Regents, the University of Texas System, priority 1995, dated 2000).
“Also recorded” adds a separate entry of the source.

Test system: breast tumors
Test: PET imaging of ER+ breast tumors in patients
Assay type: in vivo, human
Settings: 2 hours postinjection

SMILES: CCN(CC)CCOc1ccc(/C(=C(/CCC[18F])c2ccccc2)c2ccccc2)cc1 [[^18 F]FTX, (trans)[^18 F]Fluoromethyl-N,N-diethyltamoxifen]
- Detection/uptake in patients (in words): breast tumors of all three patients showed uptake; also recorded: liver and lung uptakes were high at 2 hours postinjection; also recorded: primary (left breast) and metastatic (right lymph node) breast tumors could be detected
- Detection/uptake in patients (in words) (listed as 18 F-labeled tamoxifen ligand): both primary and metastatic breast tumors could be diagnosed
